According to PubChem BioAssay AID1508600 (Functional Genomics Laboratory (NCATS/FGL), 2020):
Hit rate of the full screen: of about 53,000 sequences, about 3,700 (7%) were called active.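 How the source made its calls: active means gene knockdowns whose robust z-score for IL-1 alpha signal is at least 2 or at most -2, so actives lie on both sides; inactive means the rest.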 This is one part of the list.

Assay: Components of the Cytosolic LPS Sensing Pathway: Gene Identification via Genome-wide siRNA Screen;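 further: robust z of the log signal after scaling to non-targeting control siRNA wells of the plate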
Conditions: RAW264.7 macrophages, IL-1a HTRF, actives lie on both sides, screened at 100 nM (by protocol), cells primed 5 h with Pam3CSK4 first
In short: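 Using IL-1a HTRF as read-out, the screen measured release from RAW264.7 cells after 48h siRNA knockdown (100 nM), 5 h Pam3CSK4 priming and 24 h cytosolic LipidA. Values were expressed relative to negative-control wells as robust z-scores.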

Sequence | z-score
GCCCAGAAAUAUAAUCAAATT against Bub1 | active: 2.17
GGGACAAUGAUGUUUUUGUTT against Vmac | inactive: -1.02
GGUUACCAUGUGAAGCAGGTT against Tnfrsf14 | inactive: -0.461
GGUUCUCCAAACUCUGCCATT against Arhgap1 | active: 2.29
GCAAAACAUUUCCUGUCUGTT against Zfp316 | inactive: -0.555
CCAAUGCCUGUUUAAUAAATT against Prmt8 | inactive: 0.619
GGCUGAAAGGUCAGAUUCCTT against Vbp1 | inactive: 0.364
GGAAAACCUUCAGUCUUUGTT against Slc29a2 | inactive: 1.46
GGAAGAAGACAGCAUGAAGTT against Mpp4 | inactive: -0.387
GGAAGUAGCCCAGAAGUGUTT against Rad51d | inactive: -0.337
UUGUCCUGGUCUCCUAUGCTT against Olfr141 | inactive: 1.12
GGACUCAAACGACACAUGCTT against Eci2 | active: 2.42
GCAAGGAAGGUUUUCAAGUTT against Gsta2 | inactive: 0.146
GCUGGUGGCAAUCAGAAAATT against Nppc | inactive: 0.121
GCCAAUGAAAGAGACGUAGTT against Fam81a | inactive: -0.421
GGAGCUAGAGACAUUGUGCTT against Jade2 | inactive: -1.63
GCGAGUCUAGAUGUCUAGCTT against Snx21 | inactive: -0.323
GCUAUUUAUCACCAAGACATT against Plpp6 | inactive: -1.64
GGUAGACUAUGCUAAAUUATT against Pabpc5 | inactive: 0.659
GCCUAUCGUGGAGAUUCUGTT against Cab39l | inactive: 0.0783
GGCAACUAUAAGUACAUAGTT against Gsta3 | active: 3.87
GGCCAUUUCGUACCUUUGUTT against Plxna3 | inactive: -0.626

Sequence | z-score
CCCUAGGAGUACAUCAAAUTT against 1700001O22Rik | inactive: 1.15
GCCAUUUUAUUGAAGCAAGTT against Sema3a | inactive: 0.0231
GGACCAGAUCCUUCUGCUATT against Ubd | inactive: 1.04
GCUGACCUUCACUACUAUUTT against Cers6 | inactive: 1.05
GCCCAACGUGGUGUACAUUTT against Gask1b | active: 4.04
GGUAACCUACAGUCAAAGUTT against Gckr | inactive: 0.0759
CGAUGGUCUAAGUGAAGCGTT against Amer1 | inactive: 0.22
GGCUAAGUCCAACUUUAGATT against Tmprss5 | inactive: -0.187
GGAAUUAGAGACUGCGGAATT against Zfp821 | inactive: 0.422
AUAGACUCUUCCAUCGGCATT against Ppp1r13l | inactive: 0.927
GGCAGAACUUACACGAGAUTT against Pphln1 | inactive: -0.893
GGCAUUGUGGAUUUCGAGCTT against Tbata | inactive: 0.864
GGAGCAUUUUUUUGUUUCUTT against Cul4b | inactive: 0.403
CCUAGCUAAUAAAACAUGUTT against Ptgr1 | inactive: 0.183
GGCUACCGCCACAUUGAUUTT against Akr1a1 | inactive: -1.11
GGUAUCUGACAUCAUUUCUTT against Csn1s2b | inactive: 1.58
CCACUCAACAUGACAACUATT against Chrna2 | inactive: 1.9
GGUGUGAAACGAAAAAAGATT against Hivep1 | inactive: 0.0572
GCUACGACGUAACUGACAATT against Rpl3l | inactive: -0.222
GGAUGAUCAUUUUGUUGCATT against Glod4 | inactive: 0.607
GGAUGGUCUUAGGAUUACGTT against Fgf15 | active: 2.04
GGCCUAUUCUACCUGUAGCTT against Olfr167 | inactive: 0.298

Sequence | z-score
GCAAGCACGGAGAACCAAUTT against Selenoi | inactive: -0.212
GGAGAAACUGAUGACAGUGTT against Plcb3 | inactive: -1.01
GGAGGAAGUGAAGAAGAUATT against Echdc1 | inactive: -0.00291
CCCGCUUUCAGUCUUAACATT against Coa5 | inactive: -0.465
GCAACUGUUACUUCUCAACTT against Lrif1 | inactive: 0.598
GCUGAAGAAUGCUAUAAUUTT against Olfr63 | inactive: 0.00913
GAAAGCUAACCUCUUUCUGTT against Ang2 | inactive: 1.53
GGAAAUGCCACUAAAGAGUTT against Zdhhc3 | inactive: -0.438
GGAGGUCCUGAAACACCUCTT against Apc2 | inactive: -0.391
AGCUCUAGCAACUAAGCGCTT against Fbxw26 | inactive: 1.12
CCAAUCCCAUCCUCAUCCUTT against Fev | inactive: 0.317
GGUGCCGCCUUUGAUUGCATT against Gsto1 | inactive: -0.231
GCAUUAUGUCAGUAGCUCATT against Snrpb | active: -3.47
GGUAUAAAUUUUCUCAGCUTT against Sntg1 | inactive: -0.18
GCAAAUUUUAUCAACCGCATT against Mical3 | inactive: -0.0618
GGGAUGAUUCAAUGGAUAATT against Tbx22 | inactive: 0.789
GGUAGAGAUGUCUAAAGAUTT against Galnt9 | inactive: -0.358
GGUCCAUUAGCUAAAUCUUTT against Mysm1 | inactive: 1.87
GGAGCAGGAUAUUGAGACCTT against Ndrg1 | inactive: -0.916
GGCCAACAAGGAAAACAUCTT against Bcas2 | inactive: 1.33
CCGAGUAAGUUUAACUAAGTT against Lrrc39 | inactive: -0.501
GGGAUUUUCUGUGUAUCUUTT against Coq5 | inactive: -1.2

Sequence | z-score
GGAGCAUCUCCUCAUGGAUTT against Actl11 | active: 2.08
GCAUUCACUCCAUCAAUAGTT against Ccdc149 | inactive: -0.809
GGCUCUUGCUUUAGUAUUCTT against Ly9 | inactive: 0.99
GGGCUCCUUGUUUUAUUCUTT against Prelid1 | inactive: 0.485
GGAGAAAGUGGACAGGGCUTT against Jph4 | inactive: 0.00563
GGAGGAAAUUAUAAACAAGTT against Ifit1 | inactive: -0.149
GGGAAUUCAUUGAGAAAUATT against Anxa6 | inactive: 1.26
GGUGGAUUUGACUAUGCCCTT against Ptprv | inactive: 0.494
AGGCCUUCAAUAUCCCAUCTT against Zfp457 | inactive: 0.229
GGACCAGACGAACAGUGAUTT against Surf2 | active: 2.28
GGCGGAGAGGAAAUCUAUGTT against Mycs | inactive: 1.4
CCUACUUACUCCUGUAUAATT against Adam3 | inactive: 1.77
CCAUAUCUCAUCCUACAGCTT against Tnk1 | inactive: -0.432
GGGAAAACUUGGAUAUUCUTT against Vopp1 | inactive: 0.507
GGAUACAAUCAUCGCCAUCTT against Olfr101 | inactive: 1.3
GGAUGAGGGAACGUACAUUTT against Il18r1 | active: 5.74
GUCAAAACACUCACGUACCTT against Mustn1 | inactive: 0.168
GGUAUCUUGAGAAGCCAAUTT against Stat3 | inactive: -0.536
GCCUGUAAGGAGAAUCAGCTT against Car4 | inactive: 0.684
GGAGAUGUAACCAUAGGCCTT against Dctn6 | active: 2.07
CGAGAUCUUUCCUAGUUUUTT against Mxd1 | inactive: 0.0738
GGAGAUGCUGAAGGAUGAGTT against Prmt1 | inactive: -0.022

Retrieved one by one from above:
Sequence | z-score
GCCUGUAAGGAGAAUCAGCTT against Car4 | inactive: 0.684
GGAGCAUCUCCUCAUGGAUTT against Actl11 | active: 2.08
GGAGAAAGUGGACAGGGCUTT against Jph4 | inactive: 0.00563

The list continues:

Sequence | z-score
GUGCAUUGUCUUUUGUAGATT against Olfr1095 | inactive: -0.753
GCAGUCGCCGCUUUGUAAATT against Tlx3 | inactive: 0.669
GGGAAACAAAUGGGUUGGCTT against Chil5 | inactive: -0.504
GGAGGAAAGAAGUCCUACATT against Rnase2b | inactive: -0.835
GGGAAACUGACCAUCAAAATT against Micu1 | inactive: 0.893
CCAAGUACUGGAAAUUCAATT against Mmp15 | inactive: 1.3
CGUGUUUGACAAGGCAUUGTT against Vps11 | inactive: -0.6
GCAGUUUUAUAACAGCCCUTT against Bcs1l | inactive: -0.025
CCUUCUUGUCCUUCUUUUCTT against Olfr503 | inactive: -1.36
CCUCAUCGUUAUUUGGAUCTT against Tacr3 | inactive: -0.146
GCGAAACGCAACAUAGUCATT against Npffr2 | inactive: -1.01
AGCUGCUCUGAGUUAGAAATT against Scd2 | inactive: 0.934
GCUUAAUCCGGCUACCACUTT against Selenon | inactive: -1.24
GGACUGAGAAGAAAUGAGUTT against Il27ra | inactive: 0.386
GGAGUACCAGAGUAUAUGATT against Nmrk1 | inactive: -0.969
GCCUGUUUACGGUUUUUCUTT against Prkab2 | inactive: 0.551
CCAUGUCUUAGAAGAAGACTT against Dlc1 | inactive: 1.99
GGCUCAAGUUACUUGCUAUTT against Fras1 | inactive: 1.8
GCCAAAUCUGCGUGAAUUATT against Lrp8 | inactive: -1.87
GGAGUUUCUACGUGUAUGCTT against Tpra1 | inactive: -0.161
